Results are given in words; binding and its absence hold for the method and conditions named. One block for each molecule: values may come before it.
What was measured:
[1] = target: FOXO3-DBD (residues 155–251) (human) (UniProt O43524); assay: SEC-MALS; Superdex 200 10/300 GL; 20 mM HEPES pH 7.5, 150 mM NaCl, 10 mM MgCl2; proteins injected at 5–7 mg/ml, 0.4 ml/min; protein alone, without DNA; both purified
[2] = target: FOXL2-DBD (residues 52–148 of human FOXL2) (human) (UniProt P58012); assay: crystal structure; FOXL2-DBD with 16 bp p53-DNA, two DBDs on one DNA; 6% ethylene glycol, 0.1 M citric acid pH 3.5, 15% PEG 6000; 3.15 Å; both purified
[3] = target: FOXL2-DBD (residues 52–148 of human FOXL2) (human) (UniProt P58012); assay: SEC-MALS; Superdex 200 10/300 GL; 20 mM HEPES pH 7.5, 150 mM NaCl, 10 mM MgCl2; proteins injected at 5–7 mg/ml, 0.4 ml/min; protein alone, without DNA; both purified

Chains of the proteins cited; added tags and fusions are not shown. Residues count along the entry.
UniProt O43524, residues 155-251: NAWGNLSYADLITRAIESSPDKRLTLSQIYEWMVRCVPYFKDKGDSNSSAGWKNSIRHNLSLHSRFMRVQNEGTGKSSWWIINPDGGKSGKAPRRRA

binding [1]: no binding (tested: 5–7 mg/ml)
Molecule: FOXO3-DBD (residues 155–251) (from UniProt O43524 155-251) (domain or fragment)

binding [2]: no binding
binding [3]: no binding (tested: 5–7 mg/ml)
B1: FOXL2-DBD (residues 52–148 of human FOXL2) (domain or fragment, UniProt P58012 52-148)
chain: AQKPPYSYVALIAMAIRESAEKRLTLSGIYQYIIAKFPFYEKNKKGWQNSIRHNLSLNECFIKVPREGGGERKGNYWTLDPACEDMFEKGNYRRRRR

Reference: PMC9410875, “FOXL2 and FOXA1 cooperatively assemble on the TP53 promoter in alternative dimer configurations”
